This continues a long series; more values of the same kind are listed elsewhere.
Test system: distal small bowel gene expression
Test: RNA sequencing / transcriptional analysis of small bowel 56 days after ICR (2′-FL signature response)
Format: in vivo, mouse
Text: Luminal small bowel contents were expressed into AllProtect Tissue Reagent (Qiagen Inc, CA). Bacterial DNA was extracted using the AllPrep DNA/RNA Mini Kit (Qiagen Inc, CA), according to kit instructions and prior to sequencing (described below). Small bowel tissue samples for RNA were placed into RNA Later (Life Technologies, NY). RNA extraction was accomplished following Qiagen RNeasy Plus Kit instruction (Qiagen Inc, CA). All nucleic acid samples were then stored at -80 Celsius until sequenced (described below). Transcriptional analysis was carried out on resected and harvested small bowel samples obtained from operated mice taken to 8 weeks. Murine RNA sequencing libraries were prepared from approximately 1.5 μg RNA using the TruSeq RNA Sample Preparation Kit (Illumina, Calif.) and sequenced using the HiSeq 2000 Sequencing System (Illumina, Calif.) with single-end 50 bp reads. Following removal of primers and barcodes, sequences were aligned to the mm10 genome using reference annotations from UCSC (Rosenbloom et al. (2015) Nucleic acids research 43: […]-681) (n=36,186 entities). Aligned reads were quantified and used to compute reads per kilobase per million mapped reads (RPKM); raw counts were then normalized using the DESeq algorithm and each harvested sample was baselined to its own resected sample. A filter was applied to the data, requiring at least three reads in all samples of at least one of the four experimental conditions (n=14,489 entities). The data discussed in this publication have been deposited in NCBI's Gene Expression Omnibus and are accessible through NCBI Gene Expression Omnibus (GEO) Series accession number GSE72590. Edgar et al. (2002) Nucleic acids research 30: 207-210. In order to characterize the impact of 2'-FL supplementation while accounting for the effect of ileoecal resection, a t-test was applied between resected and harvested samples within control and experimental animals. Significance was set at a p-value of ≤0.05 and a fold change of 3, which generated 2,576 differentially regulated entities across two comparisons. Gene set unions and intersections of the control and experimental gene sets were identified through Venn diagrams. From the master list, the gene list specific to animals supplemented with 2'-FL were removed in order to identify genes differentially regulated only by ICR (n=546 entities); this gene set characterizes the adaptive response. Further, the 2'-FL response (n=2,030 entities) was identified by removing the adaptive response signature described above from the master list, leaving only genes regulated by 2'-FL supplementation after ICR which were not found in the non-supplemented adaptive response. Heatmaps were generated using hierarchical clustering with the Pearson's Centered distance metric and the average linkage rule; both entities and samples were clustered. All genomic analyses described above were performed in Strand NGS (Strand Life Sciences, CA). Gene list functional enrichment was initially discovered using ToppFun, a member of the ToppGene Suite. Chen et al. (2009) Nucleic acids research 37: […]-311. No statistical correction was selected. Gene lists were further analyzed using ClueGO, a plugin for Cytoscape designed to decipher functionally grouped gene ontology and pathway annotation networks. Bindea et al. (2009) Bioinformatics 25: 1091-1093. At the time of data analysis, the annotation files were updated from sources to Jan. 1, 2015. “GO Term Fusion” was enabled to manage ontologic term redundancy and network specificity was set to medium. Results were restricted to pathways with p≤0.05 using Benjamini-Hochberg correction and Kappa scoring was set to 0.4. Biocyc annotations were assigned a rectangle, gene ontology biologic processes were assigned an ellipse, and […] annotations were assigned a diamond shape. No meaning was assigned to size or color. […]

C[C@@H]1O[C@@H](O[C@H]2[C@H](O[C@H]3[C@H](O)[C@@H](O)C(O)O[C@@H]3CO)O[C@H](CO)[C@H](O)[C@@H]2O)[C@@H](O)[C@H](O)[C@@H]1O (stereo partly drawn) [2′-FL, 2′-fucosyllactose]
Fold Change (Pre- to Post-op) (gene Fam65a): −6.183 | Fold Change (Pre- to Post-op) (gene Fam115a): −3.095 | Fold Change (Pre- to Post-op) (gene Fam171a1): −3.149 | Fold Change (Pre- to Post-op) (gene Fam193a): −3.61 | Fold Change (Pre- to Post-op) (gene Fam214a): −6.502 | Fold Change (Pre- to Post-op) (gene Fam222b): −3.226 | Fold Change (Pre- to Post-op) (gene Fam83h): −3.01 | Fold Change (Pre- to Post-op) (gene Fan1): −9.33 | Fold Change (Pre- to Post-op) (gene Farp1): −3.578 | Fold Change (Pre- to Post-op) (gene Farp2): −3.49 | Fold Change (Pre- to Post-op) (gene Fasn): −6.481 | Fold Change (Pre- to Post-op) (gene Fat1): −3.132 | Fold Change (Pre- to Post-op) (gene Fat4): −4.299 | Fold Change (Pre- to Post-op) (gene Fbf1): −3.031 | Fold Change (Pre- to Post-op) (gene Fbrs): −3.136 | Fold Change (Pre- to Post-op) (gene Fbxl7): −4.025 | Fold Change (Pre- to Post-op) (gene Fbxl16): −4.107 | Fold Change (Pre- to Post-op) (gene Fbxo21): −5.322 | Fold Change (Pre- to Post-op) (gene Fbxo32): −3.63 | Fold Change (Pre- to Post-op) (gene Fbxo42): −3.632 | Fold Change (Pre- to Post-op) (gene Fgd1): −5.778 | Fold Change (Pre- to Post-op) (gene Fgfr1): −8.59 | Fold Change (Pre- to Post-op) (gene Fgfr4): −4.096 | Fold Change (Pre- to Post-op) (gene Fhod3): −4.424 | Fold Change (Pre- to Post-op) (gene Filip1): −5.647 | Fold Change (Pre- to Post-op) (gene Fkbp5): −5.286 | Fold Change (Pre- to Post-op) (gene Flii): −3.259 | Fold Change (Pre- to Post-op) (gene Flnb): −3.975 | Fold Change (Pre- to Post-op) (gene Flt4): −12.72 | Fold Change (Pre- to Post-op) (gene Fmnl1): −8.99 | Fold Change (Pre- to Post-op) (gene Fmnl3): −3.46 | Fold Change (Pre- to Post-op) (gene Fnbp1): −5.008 | Fold Change (Pre- to Post-op) (gene Fndc5): −3.031 | Fold Change (Pre- to Post-op) (gene Fosl2): −3.45 | Fold Change (Pre- to Post-op) (gene Foxj2): −3.612 | Fold Change (Pre- to Post-op) (gene Foxk1): −6.747 | Fold Change (Pre- to Post-op) (gene Foxm1): −4.731 | Fold Change (Pre- to Post-op) (gene Foxo4): −3.091 | Fold Change (Pre- to Post-op) (gene Foxo6): −5.395 | Fold Change (Pre- to Post-op) (gene Foxp2): −4.375 | Fold Change (Pre- to Post-op) (gene Foxp4): −6.371 | Fold Change (Pre- to Post-op) (gene Foxq1): −7.595 | Fold Change (Pre- to Post-op) (gene Fras1): −9.21 | Fold Change (Pre- to Post-op) (gene Frmd4a): −4.517 | Fold Change (Pre- to Post-op) (gene Fryl): −3.885 | Fold Change (Pre- to Post-op) (gene Fto): −4.423 | Fold Change (Pre- to Post-op) (gene Fus): −3.866 | Fold Change (Pre- to Post-op) (gene Fyb): −3.137 | Fold Change (Pre- to Post-op) (gene Fzd3): −3.334 | Fold Change (Pre- to Post-op) (gene Gaa): −4.848 | Fold Change (Pre- to Post-op) (gene Gab2): −4.213 | Fold Change (Pre- to Post-op) (gene Galnt15): −4.552 | Fold Change (Pre- to Post-op) (gene Gap43): −5.641 | Fold Change (Pre- to Post-op) (gene Garem): −5.411 | Fold Change (Pre- to Post-op) (gene Gbf1): −3.378 | Fold Change (Pre- to Post-op) (gene Gbp5): −6.449 | Fold Change (Pre- to Post-op) (gene Gch1): 3.039 | Fold Change (Pre- to Post-op) (gene Gdnf): −7.825 | Fold Change (Pre- to Post-op) (gene Gfod1): −3.385 | Fold Change (Pre- to Post-op) (gene Ggn): −4.607

— patent US10857167B2, “Use of oligosaccharide compositions to enhance weight gain” (Children's Hospital Medical Center, priority 2015, dated 2020)
